Test results taken from publication PMC10906229.
Results are given in words; binding and its absence hold for the method and conditions named. Binding seen in cells or lysates may run through a third protein. Some results given as binding are weak or reduced against the parent protein; the word gives no strength.

Chains of the proteins cited; added tags and fusions are not shown. Residues count along the entry.
UniProt P09055, residues 21-798: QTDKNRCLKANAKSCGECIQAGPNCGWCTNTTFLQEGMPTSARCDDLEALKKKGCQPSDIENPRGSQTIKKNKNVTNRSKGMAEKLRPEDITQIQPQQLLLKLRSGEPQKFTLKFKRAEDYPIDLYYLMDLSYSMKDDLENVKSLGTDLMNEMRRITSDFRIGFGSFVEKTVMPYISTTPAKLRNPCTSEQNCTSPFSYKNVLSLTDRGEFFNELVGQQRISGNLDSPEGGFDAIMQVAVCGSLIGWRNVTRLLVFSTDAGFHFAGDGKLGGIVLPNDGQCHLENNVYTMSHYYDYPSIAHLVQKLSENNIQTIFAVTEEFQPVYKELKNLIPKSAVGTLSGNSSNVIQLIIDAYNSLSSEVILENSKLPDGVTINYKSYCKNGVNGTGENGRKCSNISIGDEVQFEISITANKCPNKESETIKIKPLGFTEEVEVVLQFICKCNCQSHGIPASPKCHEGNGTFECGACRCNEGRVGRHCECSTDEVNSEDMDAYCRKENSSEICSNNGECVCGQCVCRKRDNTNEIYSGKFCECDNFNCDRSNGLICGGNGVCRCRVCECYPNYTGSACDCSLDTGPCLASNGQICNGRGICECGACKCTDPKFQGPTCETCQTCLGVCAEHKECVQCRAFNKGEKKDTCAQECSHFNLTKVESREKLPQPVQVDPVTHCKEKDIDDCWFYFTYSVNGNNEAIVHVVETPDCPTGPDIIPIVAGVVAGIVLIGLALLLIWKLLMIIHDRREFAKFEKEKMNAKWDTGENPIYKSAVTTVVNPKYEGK
UniProt P35441, residues 19-1170: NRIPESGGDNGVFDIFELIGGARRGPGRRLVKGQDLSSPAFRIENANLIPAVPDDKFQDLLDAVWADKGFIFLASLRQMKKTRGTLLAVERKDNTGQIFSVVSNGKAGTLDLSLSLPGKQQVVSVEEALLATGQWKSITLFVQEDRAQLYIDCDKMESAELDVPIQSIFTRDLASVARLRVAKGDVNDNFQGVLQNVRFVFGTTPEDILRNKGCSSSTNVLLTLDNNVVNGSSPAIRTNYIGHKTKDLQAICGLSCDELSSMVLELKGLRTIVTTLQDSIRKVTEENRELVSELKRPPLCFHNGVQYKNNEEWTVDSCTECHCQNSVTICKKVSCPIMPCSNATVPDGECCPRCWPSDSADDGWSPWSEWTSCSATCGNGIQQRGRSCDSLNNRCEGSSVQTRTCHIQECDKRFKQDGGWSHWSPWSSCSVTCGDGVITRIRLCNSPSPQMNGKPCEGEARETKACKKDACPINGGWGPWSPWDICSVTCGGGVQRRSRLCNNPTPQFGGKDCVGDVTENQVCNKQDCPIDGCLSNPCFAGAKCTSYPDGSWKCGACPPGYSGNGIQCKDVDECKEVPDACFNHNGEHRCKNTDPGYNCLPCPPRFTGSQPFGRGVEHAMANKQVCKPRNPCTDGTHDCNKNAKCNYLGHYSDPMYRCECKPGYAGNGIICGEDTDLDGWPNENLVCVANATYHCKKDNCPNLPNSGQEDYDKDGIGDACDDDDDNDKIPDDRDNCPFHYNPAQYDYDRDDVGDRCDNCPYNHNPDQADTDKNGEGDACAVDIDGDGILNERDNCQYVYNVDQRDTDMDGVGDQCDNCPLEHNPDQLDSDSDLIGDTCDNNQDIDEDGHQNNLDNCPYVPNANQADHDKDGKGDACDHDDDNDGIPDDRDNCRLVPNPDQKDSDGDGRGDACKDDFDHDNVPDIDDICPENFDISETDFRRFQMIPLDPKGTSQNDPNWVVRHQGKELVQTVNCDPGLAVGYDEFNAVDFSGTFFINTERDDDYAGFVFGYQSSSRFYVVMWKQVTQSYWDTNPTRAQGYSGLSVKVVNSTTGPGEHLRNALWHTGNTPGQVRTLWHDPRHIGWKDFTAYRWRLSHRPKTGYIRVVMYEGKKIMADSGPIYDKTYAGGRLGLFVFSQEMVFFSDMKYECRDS

Target: integrin β1 (ITGB1), Myc-labeled (UniProt P09055)
Test: co-IP; 293T cells co-transfected with Flag-labeled Thbs1 and Myc-labeled Itgb1 plasmids for 48 hours; precleaned lysates incubated with anti-Myc or anti-Flag magnetic beads; eluates blotted with anti-Flag or anti-Myc antibodies

thrombospondin 1 (THBS-1), Flag-labeled (from UniProt P35441 19-1170)
binding: binds
